Data on 61 compounds can be found in PubChem BioAssay AID2685 (National Center for Advancing Translational Sciences (NCATS), 2010).

Molecules are shown by their SMILES. The list shows a part of the results. These are further read-outs of the screen, such as a control signal, another cell line or another target. No call is given for them. Most of these compounds were active or inconclusive in the main read-out, so they are no random draw. The note in brackets gives the kind of curve behind each potency; many fits are weak.

This test in a line: qHTS Assay for Lipid Storage Modulators in Drosophila S3 Cells.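 On cell number change: cells counted by Cell Tracker Red CMTPX staining in the red channel.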 The settings on record: BODIPY lipid droplet fluorescence, 18-24 h; for cell number change: measured here: cell count max response, cells fed with added oleic acid. In a few lines:
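Laser-scanning cytometry quantifies lipid droplet accumulation (500–530 nm total intensity; droplet/cell object ratio) in oleic acid-fed (400 uM added) Drosophila S3 cells treated with a concentration series. 20 uM Triacsin C defined 100% inhibition.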

Where [1] appears, read: measured here: cell number channel AC50, cells fed with added oleic acid.
[2] abbreviates: measured here: lipid fluorescence (Fed channel) AC50, cells fed with added oleic acid.

For the compound `CCOc1ccc(C(=O)N(C)C2CCS(=O)(=O)C2)cc1` (configuration not stated), the cell number change was -5.4%. For the same compound, under setting [1], the AC50 is 6.51 µM [falling, single point].

As for `COc1cccc(N(C(=O)CCl)C(C(=O)NCCc2ccccc2)c2cccs2)c1` (configuration not stated), the cell number change stood at 0.243%. In addition, the AC50 under setting [2] is 25.9 µM [falling, single point].

Take `Cc1ccc(O)c(NC(=O)/C=C/C(=O)O)c1`: the AC50 under setting [2] was 0.206 µM [falling, full curve, poor fit].

Take `CC1(C)C(c2cccs2)=[N+]([O-])C2(CCCCC/C2=N\NC(N)=O)N1O` (configuration not stated): the cell number change is -44.8%. In addition, under setting [1], the AC50 was 32.6 µM [falling, single point].

Regarding `COc1ccc(CC(=O)Nc2cccc(-c3nnc(-c4ccc(C)cc4)o3)c2)cc1OC`, the cell number change was -63%. In addition, the concentration at half-maximal activity (AC50) under setting [1] is 16.4 µM [falling, single point]. In addition, under setting [2], the AC50 is 29.1 µM [falling, single point].

As to `O=C(NC1CCOC1)c1cc(COc2cccc(C(F)(F)F)c2)on1` (configuration not stated), the cell number change was -6.37%. For the same compound, the AC50 under setting [2] is 6.51 µM [rising, single point].

`Cc1ccc(S(=O)(=O)NNC(=O)c2ccc3ccccc3n2)cc1`: the cell number change is -14.4%. In addition, the AC50 under setting [2] is 1.84 µM [rising, full curve].

Regarding `Cc1csc(SC(C)C(=O)NC2CCCCC2C)n1` (configuration not stated), the cell number change was -33.3%. Under setting [1], the AC50 was 25.9 µM [falling, single point].

With `O=C(c1cc(C2CC2)nn1-c1ccccc1)N1CCN(S(=O)(=O)c2c(F)cccc2F)CC1`, the cell number change is -27.2%. Also, under setting [2], the AC50 is 29.1 µM [falling, single point].

Regarding `Cc1ccccc1C(=O)NCCCNC(=O)c1cnccn1`, the cell number change stood at 2.56%. Also, the AC50 under setting [2] was 10.3 µM [rising, partial curve].

As for `COC(=O)CC(c1ccc(C(C)C)cc1)n1cccc1` (configuration not stated), the cell number change is -15.5%.

`Cc1cccc(-c2c3c(=O)n(C)c(=O)n(C)c3cn2C(C)C)c1`: the cell number change came out at 9.29%. For the same compound, under setting [2], the AC50 is 3.66 µM [falling, partial curve].

On to `CC(Oc1ccc(Cl)cc1Cl)C(=O)OCn1nnc2ccccc2c1=O` (configuration not stated), for which the cell number change is -40%. For the same compound, the half-maximal activity concentration (AC50) under setting [1] was 2.91 µM [falling, full curve]. The AC50 under setting [2] is 20.6 µM [falling, partial curve].

Regarding `O=C(COC(=O)c1ccc2ncsc2c1)NCc1ccc(Cl)cc1`, the cell number change was -32.8%. Also, the half-maximal activity concentration (AC50) under setting [1] was 29.1 µM [falling, single point].

In the case of `Cc1ccc(C)n1-c1ncc(Br)cn1`, the AC50 under setting [2] was 35.5 µM [falling, single point].

As for `O=C(NCC1CCN(Cc2ccccc2F)CC1)C1CCCN(c2ncnc3c2nc2n3CCCCC2)C1` (configuration not stated), the cell number change was determined as 10.4%. Under setting [2], the half-maximal activity concentration (AC50) is 20.6 µM [rising, single point].

Consider `Cc1nc(-c2ccc(-n3nncc3-c3ccco3)cc2)cs1`, for which the cell number change was found to be 2.51%. The half-maximal activity concentration (AC50) under setting [2] was 0.259 µM [rising, partial curve, poor fit].

Turning to `COc1ccc(S(=O)(=O)NCC2CCCN(C(=O)CSC)C2)cc1` (configuration not stated), the cell number change was 2.97%.

On to `O=C(CSc1ncc(-c2ccc(F)cc2)[nH]1)Nc1cccc(O)c1`, for which the cell number change is -20.4%. Also, under setting [2], the AC50 was 3.26 µM [falling, single point].

`O=C(c1ccco1)N1CCC(c2nc3c(nnn3Cc3ccc(F)cc3)c(=O)[nH]2)CC1`: the cell number change amounted to 12.1%.

For `Cn1c(=O)c(=O)n(C)c2cc(S(=O)(=O)N3CCN(c4cccc(C(F)(F)F)c4)CC3)ccc21`, the cell number change was 3.68%.

Consider `CC(C)C(=O)C1=Cc2cccc([N+](=O)[O-])c2OC1N1CCOCC1` (configuration not stated), for which the half-maximal activity concentration (AC50) under setting [2] was 0.517 µM [falling, single point].

Turning to `O=C(NCc1ccc2c(c1)OCO2)c1ccc(CN2CCc3ccccc3C2)cc1`, the cell number change is -36.1%. The AC50 under setting [1] is 0.00461 µM [falling, full curve, poor fit].

Regarding `COc1ccc(S(=O)(=O)NN(C)c2ncc(C(F)(F)F)cc2Cl)cc1`, the cell number change is -14.4%.

For `COc1ccc(S(=O)(=O)N2CCOCC2)cc1NC(=O)COc1ccccc1OC`, the cell number change was found to be 10.7%. Further, the AC50 under setting [2] is 16.4 µM [falling, single point].

Turning to `CNc1c(NS(=O)(=O)c2ccc(C3CCCCC3)cc2)c(=O)oc2ccccc12`, under setting [2], the half-maximal activity concentration (AC50) was 29.1 µM [rising, single point].

`COc1cccc(F)c1C(C[N+](=O)[O-])c1c(N)n(C)c(=O)n(C)c1=O` (configuration not stated): the cell number change is -37.3%. In addition, under setting [1], the AC50 is 23.1 µM [falling, single point]. Moreover, the AC50 under setting [2] is 25.9 µM [falling, partial curve].

As to `CCN1CCCc2cc(CN(CCN3CCOCC3)C(=S)Nc3cccc(OC)c3)ccc21`, the cell number change stood at 12.3%. For the same compound, the concentration at half-maximal activity (AC50) under setting [1] was 6.51 µM [rising, single point].

Consider `Cc1ccc(Oc2cc(C)nc(-c3ccccc3O)n2)cc1`, for which the cell number change is -30.5%. Under setting [1], the concentration at half-maximal activity (AC50) is 7.31 µM [falling, partial curve]. Under setting [2], the AC50 is 11.6 µM [falling, partial curve].

Consider `CC(=O)N1c2c(cc(Br)cc2S(=O)(=O)N2CCN(c3ccccn3)CC2)CC1C` (configuration not stated), for which the cell number change turned out to be 64.3%. Besides, the AC50 under setting [1] was 5.17 µM [rising, full curve]. In addition, the AC50 under setting [2] was 6.51 µM [rising, single point].

On to `CCCCCCn1c(CN2CCCC(C)C2)nc2c1c(=O)n(C)c(=O)n2C` (configuration not stated), for which the cell number change is 16.5%. The concentration at half-maximal activity (AC50) under setting [1] was 6.51 µM [rising, single point]. Under setting [2], the AC50 was 23.1 µM [rising, partial curve].

With `Cc1cnc(NC(=O)C2CCCO2)s1` (configuration not stated), the cell number change is -19.5%. The concentration at half-maximal activity (AC50) under setting [1] was 7.31 µM [falling, partial curve, poor fit]. Also, the concentration at half-maximal activity (AC50) under setting [2] was 1.64 µM [falling, partial curve, poor fit].

Consider `Cc1c(CN2CCC(n3nccc3NC(=O)C3CC3)CC2)[nH]c2ccccc12`, for which the cell number change worked out at 20.9%. Under setting [2], the half-maximal activity concentration (AC50) was 11.6 µM [rising, partial curve].

As for `COc1ccccc1C(CNC(=O)CNC(=O)c1ccccc1Cl)N1CCCC1` (configuration not stated), the cell number change is -17.3%. Besides, the AC50 under setting [1] was 0.651 µM [falling, full curve, poor fit]. Moreover, the AC50 under setting [2] is 3.66 µM [falling, single point].

Regarding `CC1CCCCC1NC(=O)CSc1nnnn1-c1ccccc1` (configuration not stated), the cell number change is -4.3%.

With `CCn1c(SCC(=O)NC(C)(C)C)nc(O)cc1=O`, the AC50 under setting [1] is 6.51 µM [rising, single point].

On to `CN1C(=O)NC(NC(=O)c2cccs2)(C(F)(F)F)C1=O` (configuration not stated), for which the cell number change is -7.5%.

Regarding `Cc1nc2cc(C(=O)N3CCc4ccccc43)ccc2n1-c1ccc(F)c(F)c1`, the cell number change was -2.5%. For the same compound, under setting [1], the half-maximal activity concentration (AC50) is 0.116 µM [rising, full curve, poor fit]. Under setting [2], the AC50 was 0.146 µM [rising, full curve, poor fit].

As for `CCOC(=O)c1cc(C#N)c(SCc2cccc3ccccc23)nc1C`, the cell number change amounted to 91.2%. The concentration at half-maximal activity (AC50) under setting [1] is 10.3 µM [rising, partial curve]. Under setting [2], the AC50 was 16.4 µM [rising, partial curve].

Turning to `NS(=O)(=O)c1ccc(CCNC(=O)c2ccccc2OCc2ccc(F)cc2)cc1`, the cell number change came to 22.4%. Besides, under setting [2], the AC50 is 2.82 µM [falling, partial curve].

For `CSc1ncccc1C(=O)N(C)CC(=O)Nc1ccc(Cl)cc1`, the cell number change is 8.7%.

For `CC(=O)Oc1cccc(C(=O)Nc2ccc3c(c2)C(=O)N(CC2CCCO2)C3=O)c1` (configuration not stated), the cell number change is -40.2%. The concentration at half-maximal activity (AC50) under setting [1] was 7.31 µM [falling, partial curve, poor fit].

For `CCOC(=O)c1ccc(NC(=O)C2C3CCCCC32)cc1` (configuration not stated), the cell number change was -18.3%. Further, under setting [1], the AC50 is 3.26 µM [falling, partial curve, poor fit].

For `CC1(C(=O)OCC(=O)NCCNC(=O)COC(=O)C2(C)CC2(Cl)Cl)CC1(Cl)Cl` (configuration not stated), the cell number change was 14%.

As for `CNCc1ccccc1Sc1ccc(OC)c(OC)c1`, the cell number change came out at 19.3%. The AC50 under setting [2] is 8.2 µM [rising, partial curve, poor fit].

For the compound `Cc1cc(=O)nc2c3ccccc3n(CC(=O)Nc3ccccc3Br)n12`, the cell number change is -12.6%.

Consider `O=C(NC(=S)Nc1ccc(CN2CCOCC2)cc1)c1cccc([N+](=O)[O-])c1`, for which the cell number change was 40.5%. Further, the AC50 under setting [1] is 16.4 µM [rising, partial curve]. Under setting [2], the half-maximal activity concentration (AC50) is 1.03 µM [rising, full curve, poor fit].

Consider `CCCCCCSc1nc2c(c(=O)[nH]c(=O)n2C)n1C`, for which the cell number change is 12.8%. Under setting [2], the AC50 is 4.11 µM [rising, single point].

Regarding `COc1ccc(CNC(=O)CSCc2c(F)cccc2Cl)cc1`, the cell number change came to 15%.

As for `COc1cc(/C(C#N)=C/c2cccc3ccccc23)c([N+](=O)[O-])cc1OC`, the cell number change was determined as 19%. In addition, the AC50 under setting [2] is 4.61 µM [rising, partial curve].

With `O=C(Nc1ccccc1Cc1ccccc1)c1ccccc1F`, the cell number change is -28.9%. Besides, under setting [2], the AC50 is 3.55 µM [rising, single point].

Take `O=C(NCc1cccnc1)c1ccc(NC(=O)c2ccc([N+](=O)[O-])cc2)cc1`: the cell number change was found to be 5.95%.

Take `O=C1c2ccccc2C(=O)N1C/C=C/c1ccccc1`: the cell number change is -39.7%. Also, the AC50 under setting [1] was 0.103 µM [falling, full curve, poor fit].

`O=C(CCc1ccc(S(=O)(=O)NCc2ccccc2)cc1)N1CCN(Cc2ccc3c(c2)OCO3)CC1`: the cell number change was -30.8%. Moreover, the concentration at half-maximal activity (AC50) under setting [2] was 0.0517 µM [falling, full curve, poor fit].

For the compound `CCn1c(C)cs/c1=N\C(=S)Nc1ccccc1C`, the cell number change came out at 9.44%. Moreover, the AC50 under setting [2] was 29.1 µM [rising, single point].

Turning to `COc1cc(C(=O)NCc2nnc(SCC(=O)NCc3ccco3)o2)cc(OC)c1OC`, the cell number change turned out to be 25.7%. For the same compound, the AC50 under setting [2] is 10.3 µM [rising, partial curve].

As for `Cc1cccc(C)c1OCC(O)CN` (configuration not stated), the cell number change was -7.48%. Also, under setting [1], the half-maximal activity concentration (AC50) was 0.58 µM [falling, partial curve]. Besides, the concentration at half-maximal activity (AC50) under setting [2] is 0.116 µM [falling, full curve].

With `Cc1ccc(S(=O)(=O)NCC(=O)N2CCC(C)CC2)cc1`, the cell number change came to 11.7%. Under setting [2], the AC50 is 2.06 µM [rising, single point].

As for `Cc1ccc(Sc2c(O)c3ccccc3n(C)c2=O)cc1`, the cell number change turned out to be 26.3%. In addition, the concentration at half-maximal activity (AC50) under setting [2] was 0.13 µM [rising, full curve, poor fit].

Consider `CCc1ccc2oc(=O)cc(CN3CCOCC3)c2c1`, for which the cell number change was 5.5%. Further, the AC50 under setting [2] is 5.8 µM [rising, single point].

In the case of `CCOc1ncccc1C(=O)Nc1cccc(-c2nc3cccnc3s2)c1`, the cell number change was -25.5%. Besides, the concentration at half-maximal activity (AC50) under setting [2] was 18.4 µM [falling, single point].
